No constants are given. Whether binding was seen depends on the method and setting. Some binding calls cover weakened binding; strength is not graded here.
Experiments:
[1] = biological target: T1, murine HtrA3 protease domain (murine, UniProt Q9D236 135-350, limits assumed); assay: ELISA
T1 construct: domain: PD (protease domain); also called muHtrA3-PD; murine HtrA3-PD
T1 sequence (looked up): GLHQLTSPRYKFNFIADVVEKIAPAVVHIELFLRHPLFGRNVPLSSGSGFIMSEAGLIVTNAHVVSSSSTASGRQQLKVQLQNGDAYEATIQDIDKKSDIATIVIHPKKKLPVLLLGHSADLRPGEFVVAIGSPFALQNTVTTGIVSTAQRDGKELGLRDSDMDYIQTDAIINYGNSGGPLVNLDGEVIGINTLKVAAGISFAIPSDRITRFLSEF

[2] = biological target: T1, murine HtrA3 protease domain; assay: ELISA, hybridoma clone

binding [1]: binds
binding [2]: binds
B1: anti-HtrA1 hybridoma antibody clone 19B12 (antibody, V domains shown)
VH: EVKLVESGGGLVEPGGSLKLACVASGFTFSSYIMSWVRQTPEKRLEWVAYISNGGGTTYYSDTIKGRFTISRDNAKNTLYLQMSTLKSEDTAIYFCARQNFRSDGSSMDYWGQGTAVTVSS
VL: NIVVTQSPASLAVSLGQRATISCRASESVDSYGKSFMHWYQQKPGQPPKLLIYLASKLESGVPARFSGSGSRTDFTLTIDPVEADDAATYYCQQNNEDPYTFGGGTKLEIK
notes: Murine mIgG2a, from hybridoma or recombinant from 293 cells; also called m19B12
